The values below come from patent US20030124505.

Chains of the proteins cited; added tags and fusions are not shown. Residues count along the entry.
UniProt P0A7G6, 2-353: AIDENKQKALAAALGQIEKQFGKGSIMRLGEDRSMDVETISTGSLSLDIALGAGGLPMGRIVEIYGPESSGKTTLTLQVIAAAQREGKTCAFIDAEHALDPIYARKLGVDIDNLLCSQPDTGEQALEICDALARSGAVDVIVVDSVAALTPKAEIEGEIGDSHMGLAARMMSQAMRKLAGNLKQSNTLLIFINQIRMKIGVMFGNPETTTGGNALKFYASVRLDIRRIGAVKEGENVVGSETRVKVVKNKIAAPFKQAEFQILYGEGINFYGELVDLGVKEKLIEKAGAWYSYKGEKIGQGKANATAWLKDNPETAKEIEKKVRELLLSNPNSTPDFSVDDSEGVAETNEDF

Construct, isoform or probe ends are uncertain for at least one entry.

This series concerns the target RecA recombinase (UniProt P0A7G6). In words: binding assay. The note with it: RecA-mediated capture of mouse Rad51A cDNA, 10% heterology; purified recombinant protein; label: biotin; single-stranded DNA.

Take “ATTGACACTGAGGGTACCTTTAGGCCAGAACGGCTGCTGGCAGTGGCTGAGAGGTATGGTCTCTCTGGCAGTGATGTCCTGGATAATGTAGCATATGCTCGAGCGTTCAACACAGACCACCAGACCCAGCTCCTTTATCAAGCATCAGCCATGATGGTAGAATCTAGGTATGCACTGCTTATTGTAGACAGTGCCACCGCCCTTTACAGAACAGACTACTCGGGTCGAGGTGAGCTTTCAGCCAGGCAGATGCACTTGGCCAGGTTTCTGCGGATGCTTCTGCGACTCGCTGATGAGTTTGGTGTAGCAGTGGTAATCACTAATCAGGTG [329 bp biotinylated human Rad51A cssDNA probe]”: the binding result is given as “binds”.
